PubChem BioAssay AID1159578 | Peter MacCallum Cancer Centre | 2015
Purpose: 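siRNA pools altering how lymphatic endothelial cells close a scratch wound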 (primary screen). Cell system: human lymphatic endothelial cells. Reagents: siRNA pool against human genes, 40 nM. Time to read-out: 48 h after transfection. Detection: 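Cells stained with dye and imaged after a scratch; covered wound area and nuclei counted, duplicates averaged, migration set against mock wells and turned into a robust z-score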. Reading the numbers: migration robust z-score: higher = faster migration into the scratch; nuclei per well: higher = more cells in the well. Hit rule: 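Pools averaging fewer than 3300 nuclei are never called; remaining pools count as changed when migration robust z lies outside -2 to 2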. Meaning of the calls: active = migration changed; inactive = no migration change, or too few cells.
The deposit covers about 18,000 reagents; below is an unselected part. Over the whole deposit, about 1,030 (5.7%) are marked active. 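Inactive calls also include pools with fewer than 3300 nuclei, whose migration was not assessed.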 The raw values are shown without normalisation. A number with no mark means an inactive call. Further read-outs or replicates are left out here. No sequences are given here.

{"target gene": "ZFP28 (ZFP28 zinc finger protein)", "migration robust z-score": -1.25, "nuclei per well, duplicate mean": 5295}
{"target gene": "COQ10B (coenzyme Q10B)", "migration robust z-score": 0.72, "nuclei per well, duplicate mean": 6546}
{"target gene": "CCDC174 (coiled-coil domain containing 174)", "migration robust z-score": -0.58, "nuclei per well, duplicate mean": 6374}
{"target gene": "SLFNL1 (schlafen like 1)", "migration robust z-score": -1.27, "nuclei per well, duplicate mean": 7702}
{"target gene": "ENOX1 (ecto-NOX disulfide-thiol exchanger 1)", "migration robust z-score": -0.82, "nuclei per well, duplicate mean": 5892}
{"target gene": "S100P (S100 calcium binding protein P)", "migration robust z-score": 0.17, "nuclei per well, duplicate mean": 3367}
{"target gene": "ZBTB14 (zinc finger and BTB domain containing 14)", "migration robust z-score": 0.48, "nuclei per well, duplicate mean": 5714}
{"target gene": "TECTB (tectorin beta)", "migration robust z-score": "-2.05 (active)", "nuclei per well, duplicate mean": 4429}
{"target gene": "BCAN (brevican)", "migration robust z-score": -0.16, "nuclei per well, duplicate mean": 5318}
{"target gene": "AP1S1 (adaptor related protein complex 1 subunit sigma 1)", "migration robust z-score": 1, "nuclei per well, duplicate mean": 5433}
{"target gene": "SHCBP1L (SHC binding and spindle associated 1 like)", "migration robust z-score": -0.44, "nuclei per well, duplicate mean": 5378}
{"target gene": "LINC00207 (long independently transcribed non-coding RNA 207)", "migration robust z-score": 0.72, "nuclei per well, duplicate mean": 6814}

A portion of the results above, as a working copy:
{"target gene": "TECTB (tectorin beta)", "migration robust z-score": "-2.05 (active)", "nuclei per well, duplicate mean": 4429}
{"target gene": "BCAN (brevican)", "migration robust z-score": -0.16, "nuclei per well, duplicate mean": 5318}
